Experimental data: PubChem BioAssay AID1224830 (NIAID, 2016)

Aim: 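Host factors that control LPS-induced TNF expression in human macrophages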 (primary screen)
System: human THP-1 monocytic leukaemia cells, TNF dual-luciferase reporter clone, PMA-differentiated to macrophage-like cells
Knock-down reagent: siRNA pool against human genes, 50 nM
Timing: LPS for 4 h, given about 3 days after siRNA transfection
Challenge: bacterial LPS (TLR4 ligand), 10 ng/ml
Detection: 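Ratio of firefly to renilla light, scaled to the plate median and expressed as a robust z-score per replicate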
Scale: TNF reporter robust z-score: higher = stronger TNF reporter response to LPS
Rule for the call: 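Each well counts as active if its z-score is over 2.8 or under -1.5; controls are left without a call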
The deposit covers about 18,000 reagents; this is an unselected part. In the full data, about 2,900 (16%) were called active. 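Calls are made per well; low scores hint the gene aids the LPS response, high scores that it dampens it.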 Entries without a mark were called inactive. Repeated entries: four replicate wells of each siRNA pool.

target gene | TNF reporter robust z-score
SLC39A14 | 0.16
SLC39A14 | -0.26
SLC39A14 | -0.21
SLC39A14 | -0.41
TUFM | 0.57
TUFM | -0.1
TUFM | 0.52
TUFM | 0.4
CTRB1 | -0.32
CTRB1 | -0.76
CTRB1 | -0.11
CTRB1 | -0.8
MDGA1 | -0.84
MDGA1 | 0.3
MDGA1 | -0.01
MDGA1 | 0.55
PLPP5 | 0.48
PLPP5 | -0.72
PLPP5 | -0.62
PLPP5 | -0.03
SATL1 | 0.25
SATL1 | 0.62
SATL1 | 0.24
SATL1 | 0.89
SACK1D | -0.64
SACK1D | 0.07
SACK1D | 0.56
SACK1D | 0.09
BCL7B | -0.28
BCL7B | -0.63
BCL7B | -0.39
BCL7B | -0.27
STAG3L3 | 1
STAG3L3 | 0.98
STAG3L3 | -0.06
STAG3L3 | 2.46
LGALS9C | 0.79
LGALS9C | 1.49
LGALS9C | 1.83
LGALS9C | -0.31
CRYBA4 | -0.86
CRYBA4 | -0.97
CRYBA4 | -0.36
CRYBA4 | 0.08
SH2D2A | 1.78
SH2D2A | 1.82
SH2D2A | 1.74
SH2D2A | 1.8
LYSMD1 | 0.88
LYSMD1 | 2.98 (active)
LYSMD1 | 1
LYSMD1 | 1.95
OGDHL | 0.15
OGDHL | 1.69
OGDHL | 0.24
OGDHL | 1.45
DCAF10 | 0.61
DCAF10 | 0.43
DCAF10 | 0.15
DCAF10 | 1.21
ZNF43 | 1.15
ZNF43 | 0.54
ZNF43 | 0.15
ZNF43 | 0.86
INPP5F | -0.3
INPP5F | 0.99
INPP5F | 0.69
INPP5F | 0.93
GSTT2 | 0.64
GSTT2 | 0.36
GSTT2 | 0.59
GSTT2 | 1.12
SLC22A7 | -0.5
SLC22A7 | -0.41
SLC22A7 | -0.31
SLC22A7 | -0.34
ZNF670 | -0.21
ZNF670 | -0.54
ZNF670 | -0.72
ZNF670 | -0.04
PRR15 | 2.54
PRR15 | 2.09
PRR15 | 2.92 (active)
PRR15 | 3.6 (active)

Laid out differently: entries from further up
target gene,TNF reporter robust z-score
TUFM,0.57
TUFM,-0.1
TUFM,0.52
TUFM,0.4
CTRB1,-0.32
CTRB1,-0.76
CTRB1,-0.11
CTRB1,-0.8
MDGA1,-0.84
MDGA1,0.3
MDGA1,-0.01
MDGA1,0.55
PLPP5,0.48

Additional results follow.
target gene | TNF reporter robust z-score
MYOM3 | -0.34
MYOM3 | -0.62
MYOM3 | -0.31
MYOM3 | -0.01
TMEM255A | -0.81
TMEM255A | 0.77
TMEM255A | 0.11
TMEM255A | -0.32
PDE1B | -0.52
PDE1B | -0.55
PDE1B | -1.19
PDE1B | -1.32
RGPD1 | -0.41
RGPD1 | -0.58
RGPD1 | -0.32
RGPD1 | -0.52
REXO1 | 0.8
REXO1 | 0.97
REXO1 | 0.05
REXO1 | 0.64
TMPPE | -0.63
TMPPE | -1.05
TMPPE | -1
TMPPE | -0.76
MSLNL | -0.1
MSLNL | -0.67
MSLNL | 0.78
MSLNL | 0.56
DKK3 | -0.57
DKK3 | 2.33
DKK3 | -0.49
DKK3 | -0.73
TCF3 | -1.46
TCF3 | -1.05
TCF3 | 0.57
TCF3 | 0.21
GLB1L3 | 0.47
GLB1L3 | -0.07
GLB1L3 | 0.09
GLB1L3 | 0.25
PMM2 | -0.49
PMM2 | -0.36
PMM2 | -0.08
PMM2 | -0.09
KBTBD2 | -0.39
KBTBD2 | 0.38
KBTBD2 | 0.43
KBTBD2 | 0.83
AGTR1 | -0.06
AGTR1 | 0.44
AGTR1 | 0.02
AGTR1 | 0.36
MEI1 | 0.38
MEI1 | 0.07
MEI1 | 0.75
MEI1 | -0.69
